Results: US7947626B2 (priority 2006, dated 2011)
At least one structure is not confirmed: it was looked up by name or label, or the drawing left a doubt.

Legend:
[1] = system: primary cortical stem cell and progenitor cell derived neural networks; type: cell-based, rat
[2] = system: passaged cortical stem and progenitor cell derived neural networks; type: cell-based, rat

CN1CCc2cc3c(cc2[C@H]1[C@@H]1OC(=O)c2c1ccc1c2OCO1)OCO3 [bicuculline]
mean spike rate (MSR) response of the network [1]: increase in MSR | raw action potential spike activity, single channel 10 second trace [1]: increased activity and change in burst pattern | mean spike rate (MSR) response of the network [2]: increase in MSR | raw action potential spike activity, single channel 10 second trace [2]: increased activity and a change in burst pattern
